Measurements as given in patent publication US20220308062A1, “METHODS FOR PREDICTING DRUG RESPONSIVENESS IN SAMPLES FROM CANCER SUBJECTS” (Board of Regents, The University of Texas System, priority 2019, published 2022).
At least one structure is not confirmed: it was looked up by name or label, or the drawing left a doubt. Some results were stated once for a whole list of compounds, not compound by compound.

System: patient-derived organoids (PDOs)
Test: Patient-derived organoid CellTiter-Glo cell viability
Type: cell-based, human
Protocol: Patient-derived organoids (PDOs). Tumor tissues were minced on ice into 1 mm^3 small pieces. Tumor pieces (˜20 μl in volume) were resuspended in 200 μl Matrigel and seeded into 24 well plates for 15 min until gel solidify, followed by culture in advanced DMEM/F12 medium supplemented with B27 and N2 (Thermo Fisher Scientific), 0.01% BSA (Roche), 100 units/m penicillin-streptomycin (Thermo Fisher Scientific), and others (Table 4) for 4-8 weeks to grow organoids. […] The CellTiter-Glo Luminescent Cell Viability assay was used to determine drug responsiveness.

| Compound | reduction in cell viability (PDOs of Pt 014 and 017 (Category II), single agent, TP-0903 20 nmol/L or ruxolitinib 15 μmol/L, 72 hr) | PDO response (cell viability) (PDO of Pt 016 (59% Category IV), 15 μmol/L alone, 72 hr) | PDO sensitivity (PDOs from tumors with high AXL and JAK1) | PDO response (cell viability) (PDOs of Pt 008 and 010 (Category I/II), TP-0903 20 nmol/L or ruxolitinib 15 μmol/L, 72 hr) |
| --- | --- | --- | --- | --- |
| CN1CCN(Cc2ccc(Nc3ncc(Cl)c(Nc4ccccc4S(=O)(=O)N(C)C)n3)cc2)CC1 [TP-0903] | 10-20% | – | – | – |
| N#CC[C@H](C1CCCC1)n1cc(-c2ncnc3[nH]ccc23)cn1 [ruxolitinib] | – | responded robustly | sensitive | did not respond robustly |
